These are yes or no findings as the source states them, for the method shown. Binding seen in cells or lysates may run through a third protein. Some binding calls cover weakened binding; strength is not graded here.
Tests used:
[1] = target: p53, as found in the co-immunoprecipitations with ARTS and with XIAP (UniProt P04637); assay: co-IP; cells lysed in RIPA buffer (50 mM Tris-HCl pH 7.5, 150 mM NaCl, 0.3% NP-40); antibody 5 µg per 1000 µg protein overnight at 4 °C; protein A/G agarose 4 h; five washes; western blot. Cell line not stated. Etoposide-treated cells for ARTS-p53.
[2] = target: endogenous p53 in A375 cells (human (endogenous in A375)) (UniProt P04637); assay: proximity ligation; Duolink in situ PLA on endogenous proteins in A375 cells treated with DMSO or 10 µM B3 for 6 h; confocal microscopy

| binding [1] | binding [2] | Substance |
| --- | --- | --- |
| binds |  | endogenous XIAP (co-immunoprecipitation with p53) (from UniProt P98170 1-497) |
|  | binds | endogenous XIAP in A375 cells (from UniProt P98170 1-497) |

From paper PMC11263447
